Measured data: PubChem BioAssay AID493246 (Drosophila RNAi Screening Center, 2011)
Aim: 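Identify essential fly genes by loss of cell viability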 (primary screen). Cell system: Drosophila Kc and S2R+ cells. Reagents: long dsRNA against Drosophila genes. Measurement: 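Raw, unnormalised count of remaining cells in each well; per-plate z-scores of cell number underlie the calls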. Direction: Kc cell number and S2R+ cell number: higher = more cells remaining. Active means: 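Counted as a hit if cell number falls by a z-score of at least 3 within its plate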.
The screen tested about 21,000 reagents; below is an unselected part of those that have a named target and a result. In the full data, 429 (2%) were called active. 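Values are raw and not normalised between plates; calls rest on per-plate z-scores that were not deposited.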 Names joined by + are all predicted targets of the reagent. Not given: the amount of reagent, the time to read-out.

alpha-Cat (GeneID 40517) [DRSC11917]
- Kc cell number, rep 1: 1.59e6
- Kc cell number, rep 2: 1.47e6
- S2R+ cell number, rep 1: 1.14e6
- S2R+ cell number, rep 2: 1.20e6
- Call: inactive

His2B:CG33894 + His2B:CG33872 + His2B:CG33902 + 20 more [DRSC21265]
- Kc cell number, rep 1: 6.14e5
- Kc cell number, rep 2: 7.69e5
- S2R+ cell number, rep 1: 4.63e5
- S2R+ cell number, rep 2: 5.52e5
- Call: active

CG12641 (retired record) (GeneID 31963) [DRSC17848]
- Kc cell number, rep 1: 1.58e6
- Kc cell number, rep 2: 1.56e6
- S2R+ cell number, rep 1: 7.78e5
- S2R+ cell number, rep 2: 8.70e5
- Call: inactive

CG13280 (GeneID 35015) [DRSC02253]
- Kc cell number, rep 1: 1.54e6
- Kc cell number, rep 2: 1.63e6
- S2R+ cell number, rep 1: 1.10e6
- S2R+ cell number, rep 2: 1.23e6
- Call: inactive

eEFSec (GeneID 37444) [DRSC04571]
- Kc cell number, rep 1: 1.47e6
- Kc cell number, rep 2: 1.59e6
- S2R+ cell number, rep 1: 1.23e6
- S2R+ cell number, rep 2: 2.55e5
- Call: inactive

CG34026 (GeneID 3885569) [DRSC17616]
- Kc cell number, rep 1: 1.29e6
- Kc cell number, rep 2: 1.46e6
- S2R+ cell number, rep 1: 1.07e6
- S2R+ cell number, rep 2: 1.08e6
- Call: inactive

Obp56d (GeneID 37266) [DRSC06064]
- Kc cell number, rep 1: 1.53e6
- Kc cell number, rep 2: 1.61e6
- S2R+ cell number, rep 1: 1.26e6
- S2R+ cell number, rep 2: 1.36e6
- Call: inactive

Phs (GeneID 39697) [DRSC10827]
- Kc cell number, rep 1: 1.57e6
- Kc cell number, rep 2: 1.50e6
- S2R+ cell number, rep 1: 1.26e6
- S2R+ cell number, rep 2: 1.41e6
- Call: inactive

sphinx1 (GeneID 318005) [DRSC10993]
- Kc cell number, rep 1: 1.53e6
- Kc cell number, rep 2: 1.46e6
- S2R+ cell number, rep 1: 1.23e6
- S2R+ cell number, rep 2: 1.30e6
- Call: inactive

CG6153 (GeneID 34675) [DRSC02935]
- Kc cell number, rep 1: 1.34e6
- Kc cell number, rep 2: 1.44e6
- S2R+ cell number, rep 1: 1.24e6
- S2R+ cell number, rep 2: 1.24e6
- Call: inactive

Nf-YC (GeneID 31622) [DRSC18272]
- Kc cell number, rep 1: 3.85e5
- Kc cell number, rep 2: 4.66e5
- S2R+ cell number, rep 1: 3.98e5
- S2R+ cell number, rep 2: 5.20e5
- Call: active

CG13631 (GeneID 50073) [DRSC14632]
- Kc cell number, rep 1: 1.62e6
- Kc cell number, rep 2: 1.75e6
- S2R+ cell number, rep 1: 1.14e6
- S2R+ cell number, rep 2: 1.25e6
- Call: inactive

CG5402 (GeneID 43306) [DRSC15792]
- Kc cell number, rep 1: 1.54e6
- Kc cell number, rep 2: 1.58e6
- S2R+ cell number, rep 1: 9.83e5
- S2R+ cell number, rep 2: 1.14e6
- Call: inactive

VhaM9.7-a (GeneID 38521) [DRSC08289]
- Kc cell number, rep 1: 1.55e6
- Kc cell number, rep 2: 1.53e6
- S2R+ cell number, rep 1: 1.09e6
- S2R+ cell number, rep 2: 1.21e6
- Call: inactive

CG5928 (GeneID 31539) [DRSC18391]
- Kc cell number, rep 1: 1.34e6
- Kc cell number, rep 2: 1.34e6
- S2R+ cell number, rep 1: 1.04e6
- S2R+ cell number, rep 2: 1.16e6
- Call: inactive

loco (GeneID 42672) [DRSC15202]
- Kc cell number, rep 1: 1.56e6
- Kc cell number, rep 2: 1.55e6
- S2R+ cell number, rep 1: 1.02e6
- S2R+ cell number, rep 2: 1.12e6
- Call: inactive

loco (GeneID 42672) [DRSC16989]
- Kc cell number, rep 1: 1.50e6
- Kc cell number, rep 2: 1.55e6
- S2R+ cell number, rep 1: 1.27e6
- S2R+ cell number, rep 2: 1.29e6
- Call: inactive

mld (GeneID 2768685) [DRSC13681]
- Kc cell number, rep 1: 1.04e6
- Kc cell number, rep 2: 1.46e6
- S2R+ cell number, rep 1: 1.03e6
- S2R+ cell number, rep 2: 1.03e6
- Call: inactive

mld (GeneID 2768685) [DRSC14622]
- Kc cell number, rep 1: 1.50e6
- Kc cell number, rep 2: 1.54e6
- S2R+ cell number, rep 1: 1.15e6
- S2R+ cell number, rep 2: 1.25e6
- Call: inactive

CG3793 (GeneID 34928) [DRSC01982]
- Kc cell number, rep 1: 1.38e6
- Kc cell number, rep 2: 1.43e6
- S2R+ cell number, rep 1: 1.29e6
- S2R+ cell number, rep 2: 1.35e6
- Call: inactive

CG33301 (GeneID 2768917) [DRSC02778]
- Kc cell number, rep 1: 1.52e6
- Kc cell number, rep 2: 1.56e6
- S2R+ cell number, rep 1: 1.18e6
- S2R+ cell number, rep 2: 1.33e6
- Call: inactive

ProtB (GeneID 34867) [DRSC03373]
- Kc cell number, rep 1: 1.53e6
- Kc cell number, rep 2: 1.61e6
- S2R+ cell number, rep 1: 1.32e6
- S2R+ cell number, rep 2: 1.48e6
- Call: inactive

CG10013 (GeneID 41494) [DRSC14175]
- Kc cell number, rep 1: 1.46e6
- Kc cell number, rep 2: 1.53e6
- S2R+ cell number, rep 1: 1.23e6
- S2R+ cell number, rep 2: 1.30e6
- Call: inactive

fs(1)h (GeneID 31722) [DRSC18778]
- Kc cell number, rep 1: 1.51e6
- Kc cell number, rep 2: 1.59e6
- S2R+ cell number, rep 1: 1.10e6
- S2R+ cell number, rep 2: 1.20e6
- Call: inactive

CG9822 (GeneID 37440) [DRSC04568]
- Kc cell number, rep 1: 1.72e6
- Kc cell number, rep 2: 1.79e6
- S2R+ cell number, rep 1: 1.21e6
- S2R+ cell number, rep 2: 2.34e5
- Call: inactive

lbm (GeneID 35623) [DRSC07643]
- Kc cell number, rep 1: 1.42e6
- Kc cell number, rep 2: 1.48e6
- S2R+ cell number, rep 1: 1.23e6
- S2R+ cell number, rep 2: 1.39e6
- Call: inactive

nsr (GeneID 37577) [DRSC04427]
- Kc cell number, rep 1: 1.53e6
- Kc cell number, rep 2: 1.59e6
- S2R+ cell number, rep 1: 1.14e6
- S2R+ cell number, rep 2: 1.18e6
- Call: inactive

Entries listed so far whose target name begins with L or l:
loco (GeneID 42672) [DRSC15202]
- Kc cell number, rep 1: 1.56e6
- Kc cell number, rep 2: 1.55e6
- S2R+ cell number, rep 1: 1.02e6
- S2R+ cell number, rep 2: 1.12e6
- Call: inactive

loco (GeneID 42672) [DRSC16989]
- Kc cell number, rep 1: 1.50e6
- Kc cell number, rep 2: 1.55e6
- S2R+ cell number, rep 1: 1.27e6
- S2R+ cell number, rep 2: 1.29e6
- Call: inactive

lbm (GeneID 35623) [DRSC07643]
- Kc cell number, rep 1: 1.42e6
- Kc cell number, rep 2: 1.48e6
- S2R+ cell number, rep 1: 1.23e6
- S2R+ cell number, rep 2: 1.39e6
- Call: inactive
